{"source": "paper PMC12796447", "about": "“Cran1, member of a new class of OLD family ATPases, functions in cell cycle progression in an archaeon” (EMBO Reports, 2025)", "system": "aCcr1 (Saccharolobus islandicus REY15A)", "assay": "EMSA", "conditions": "0, 0.5 and 1 uM aCcr1, 2 nM probe (legend, Methods say 10 nM), 5 mM Mg2+; 50 mM Tris-HCl pH 7.4, 5 mM MgCl2, 20 mM NaCl, 50 ug/mL BSA, 1 mM DTT, 5% glycerol, 37 C 30 min; native PAGE (12% in Methods, 10% in legend), 0.5x TBE; recombinant protein; label: 5'-FAM on strand 1", "note": "The exact form of at least one protein or probe is not confirmed."}
{"sequence": "AGATAATACTCCGTTTTTTCTCTAACAATAGATTAACGTTAAAGAAGCCTGCTAACGATTATATTTTATTCTGCTAAGTATTACCGTAGAGTGATCTGTA (double strand) [Pcran1 (cran1 promoter, 100 nt)]", "values": [{"measurement": "binding result", "result": "binds"}]}
